PubChem BioAssay AID1259308, NCATS | 2017
Shown is a random part of about 59,000 deposited reagents. About 1,510 of them (2.6%) count as active. 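Calls use total luciferase alone and ignore viability, so some active siRNAs may act by altering cell number.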 Unmarked entries are inactive. Reagents against one gene are numbered here. Further read-outs or replicates are left out here.

Screen: 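Knock-downs that increase output of a recombinant reporter protein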 (primary screen)
Cells: human HEK293 embryonic kidney cells stably expressing firefly luciferase (HEK-CMV-Luc2-Hygro)
Reagent: single siRNA against human genes, 0.8 pmol siRNA per well
Time to read-out: 72 h
Measured: 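Luciferase light (ONE-Glo) measured on one replicate plate set and viability (CellTiter-Glo) on the other, scaled to a negative control siRNA, with robust z-scores and luciferase per cell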
Scale: total luciferase, z-score: higher = more reporter protein produced
Active means: 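An siRNA counts as active if its total luciferase robust z-score exceeds 3; genes with two or more such siRNAs out of three were retested with fresh siRNAs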
Calls: active = raised luciferase; inactive = no rise

The first 5 entries, ahead of the listing:
gene symbol	siRNA no.	total luciferase, z-score
GNG7 (G protein subunit gamma 7)	1	0.92
GNG7 (G protein subunit gamma 7)	2	2
GNG7 (G protein subunit gamma 7)	3	5.18 (active)
OTUB2 (OTU deubiquitinase, ubiquitin aldehyde binding 2)	1	0.438
OTUB2 (OTU deubiquitinase, ubiquitin aldehyde binding 2)	2	1.26

Main list, from the start:
gene symbol	siRNA no.	total luciferase, z-score
GNG7 (G protein subunit gamma 7)	1	0.92
GNG7 (G protein subunit gamma 7)	2	2
GNG7 (G protein subunit gamma 7)	3	5.18 (active)
OTUB2 (OTU deubiquitinase, ubiquitin aldehyde binding 2)	1	0.438
OTUB2 (OTU deubiquitinase, ubiquitin aldehyde binding 2)	2	1.26
OTUB2 (OTU deubiquitinase, ubiquitin aldehyde binding 2)	3	-0.77
TBC1D12 (TBC1 domain family member 12)	1	3.24 (active)
TBC1D12 (TBC1 domain family member 12)	2	-0.0311
TBC1D12 (TBC1 domain family member 12)	3	0.0456
IGSF21 (immunoglobin superfamily member 21)	1	-0.0552
IGSF21 (immunoglobin superfamily member 21)	2	-0.183
IGSF21 (immunoglobin superfamily member 21)	3	0.602
ILDR2 (immunoglobulin like domain containing receptor 2)	1	-1.26
ILDR2 (immunoglobulin like domain containing receptor 2)	2	-0.0019
ILDR2 (immunoglobulin like domain containing receptor 2)	3	1.28
HRG (histidine rich glycoprotein)	1	1.28
HRG (histidine rich glycoprotein)	2	-0.156
HRG (histidine rich glycoprotein)	3	0.462
CACNA2D2	1	-0.192
CACNA2D2	2	-1.39
CACNA2D2	3	-1.55
RTN1 (reticulon 1)	1	1.26
RTN1 (reticulon 1)	2	1.44
RTN1 (reticulon 1)	3	0.0791
PIF1 (PIF1 5'-to-3' DNA helicase)	1	1.37
PIF1 (PIF1 5'-to-3' DNA helicase)	2	0.372
PIF1 (PIF1 5'-to-3' DNA helicase)	3	-0.255
KCTD2 (potassium channel tetramerization domain containing 2)	1	-0.207
KCTD2 (potassium channel tetramerization domain containing 2)	2	-1.06
KCTD2 (potassium channel tetramerization domain containing 2)	3	-1.62
P2RY8 (P2Y receptor family member 8)	1	-0.129
P2RY8 (P2Y receptor family member 8)	2	-1.66
P2RY8 (P2Y receptor family member 8)	3	-0.394
FOXP1 (forkhead box P1)	1	1.34
FOXP1 (forkhead box P1)	2	0.31
FOXP1 (forkhead box P1)	3	0.923
STK33 (serine/threonine kinase 33)	1	-0.105
STK33 (serine/threonine kinase 33)	2	-0.149
STK33 (serine/threonine kinase 33)	3	-0.732
B3GAT2 (beta-1,3-glucuronyltransferase 2)	1	1.81
B3GAT2 (beta-1,3-glucuronyltransferase 2)	2	2.69
B3GAT2 (beta-1,3-glucuronyltransferase 2)	3	0.0928
ERGIC2 (ERGIC and golgi 2)	1	1.37
ERGIC2 (ERGIC and golgi 2)	2	0.524
ERGIC2 (ERGIC and golgi 2)	3	-1.24
RPP30 (ribonuclease P/MRP subunit p30)	1	-1.1
RPP30 (ribonuclease P/MRP subunit p30)	2	3.59 (active)
RPP30 (ribonuclease P/MRP subunit p30)	3	-1.83
LOC390846 (golgi SNAP receptor complex member 2 pseudogene)	1	0.727
LOC390846 (golgi SNAP receptor complex member 2 pseudogene)	2	0.218
LOC390846 (golgi SNAP receptor complex member 2 pseudogene)	3	-0.819
STOML1 (stomatin like 1)	1	0.946
STOML1 (stomatin like 1)	2	-0.944
STOML1 (stomatin like 1)	3	0.297
RRP15 (ribosomal RNA processing 15 homolog)	1	-0.848
RRP15 (ribosomal RNA processing 15 homolog)	2	-0.6
RRP15 (ribosomal RNA processing 15 homolog)	3	-0.507
LGALS1 (galectin 1)	1	0.838
LGALS1 (galectin 1)	2	0.0641
LGALS1 (galectin 1)	3	0.122
BTBD8 (BTB domain containing 8)	1	-0.765
BTBD8 (BTB domain containing 8)	2	3 (active)
BTBD8 (BTB domain containing 8)	3	-1.51
BSPRY (B-box and SPRY domain containing)	1	0.84
BSPRY (B-box and SPRY domain containing)	2	2.66
BSPRY (B-box and SPRY domain containing)	3	-0.177
MRPL19 (mitochondrial ribosomal protein L19)	1	-0.0577
MRPL19 (mitochondrial ribosomal protein L19)	2	-0.426
MRPL19 (mitochondrial ribosomal protein L19)	3	-0.183
SLC10A1	1	1.38
SLC10A1	2	-0.731
SLC10A1	3	-0.608
EIF5A (eukaryotic translation initiation factor 5A)	1	-1.25
EIF5A (eukaryotic translation initiation factor 5A)	2	1.35
EIF5A (eukaryotic translation initiation factor 5A)	3	0.21
